PubChem BioAssay AID504764 – Drosophila RNAi Screening Center, 2011
In all, the deposit lists about 22,000 reagents; shown is an unselected part of those that have a named target and a result. In the full data, 403 (1.9%) got an active call. 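Unnormalised raw counts per well; ratio z-scores behind the hit calls and whether each hit raises or lowers signal are not deposited.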 The record does not give: the amount of reagent.

- Aim: 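Genome-wide screen for regulators of Notch-driven gene expression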 (primary screen)
- Cell system: Drosophila Kc167 cells
- Knock-down reagent: long dsRNA against Drosophila genes
- Time to read-out: about 5 days (4 days dsRNA, then 24 h after transfection)
- Challenge: transfection of constitutively active membrane-tethered Notch lacking the extracellular domain, read 24 h later
- Detection: 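Light from a Notch-responsive E(spl)m3 luciferase reporter under active Notch, with control-promoter and no-Notch reporter wells to normalise; raw counts from paired wells a and b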
- Scale: induced reporter light, run 1, well a and induced reporter light, run 1, well b: higher = more light from the Notch target reporter with active Notch; control promoter light, run 1, well a and control promoter light, run 1, well b: higher = more light from the viral control promoter (cell number, transfection, viability); uninduced reporter light, run 1, well a: higher = more light from the Notch target reporter without active Notch
- Rule for the call: 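Hit if the duplicate-averaged log2 ratio of induced to control-promoter light gives a plate-wise z beyond ±2, or induced to uninduced beyond ±1.8; weak-control or discordant-duplicate wells dropped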
- Meaning of the calls: active = modifier hit (raised or lowered Notch signal); inactive = not a hit

With knock-down of CG9861 [DRSC04576], the record shows induced reporter light, run 1, well a = 2.24e5; induced reporter light, run 1, well b = 2.18e5; control promoter light, run 1, well a = 2.30e5; control promoter light, run 1, well b = 2.39e5; uninduced reporter light, run 1, well a = 17790; inactive.
With knock-down of nsr [DRSC04427], the screen gave induced reporter light, run 1, well a = 99195; induced reporter light, run 1, well b = 1.09e5; control promoter light, run 1, well a = 81690; control promoter light, run 1, well b = 74610; uninduced reporter light, run 1, well a = 7375; inactive.
With knock-down of Ugt303B2 [DRSC14198], the record shows induced reporter light, run 1, well a = 1.48e5; induced reporter light, run 1, well b = 1.53e5; control promoter light, run 1, well a = 1.75e5; control promoter light, run 1, well b = 2.09e5; uninduced reporter light, run 1, well a = 14355; inactive.
After knock-down of CG8419 [DRSC03087], the screen gave induced reporter light, run 1, well a = 1.76e5; induced reporter light, run 1, well b = 1.91e5; control promoter light, run 1, well a = 1.35e5; control promoter light, run 1, well b = 1.60e5; uninduced reporter light, run 1, well a = 21360; inactive.
Knock-down of aPKC [DRSC05515] gave: induced reporter light, run 1, well a = 2.08e5; induced reporter light, run 1, well b = 1.73e5; control promoter light, run 1, well a = 2.33e5; control promoter light, run 1, well b = 2.48e5; uninduced reporter light, run 1, well a = 16180; inactive.
Depletion of aPKC [DRSC07639] gave: induced reporter light, run 1, well a = 99395; induced reporter light, run 1, well b = 1.04e5; control promoter light, run 1, well a = 1.04e5; control promoter light, run 1, well b = 1.05e5; uninduced reporter light, run 1, well a = 7545; inactive.
CG12641 (retired record) [DRSC17848] scored induced reporter light, run 1, well a = 16580; induced reporter light, run 1, well b = 12520; control promoter light, run 1, well a = 19710; control promoter light, run 1, well b = 17010; uninduced reporter light, run 1, well a = 3190; inactive.
Knock-down of Tmem131 [DRSC07154] gave: induced reporter light, run 1, well a = 1.11e5; induced reporter light, run 1, well b = 1.18e5; control promoter light, run 1, well a = 2.17e5; control promoter light, run 1, well b = 2.69e5; uninduced reporter light, run 1, well a = 10510; inactive.
For CG7264 [DRSC10793], the values are induced reporter light, run 1, well a = 1.51e5; induced reporter light, run 1, well b = 96295; control promoter light, run 1, well a = 1.82e5; control promoter light, run 1, well b = 1.31e5; uninduced reporter light, run 1, well a = 6560; inactive.
Silencing of Adck1 [DRSC04394] gave: induced reporter light, run 1, well a = 1.55e5; induced reporter light, run 1, well b = 1.63e5; control promoter light, run 1, well a = 1.62e5; control promoter light, run 1, well b = 1.53e5; uninduced reporter light, run 1, well a = 14478; inactive.
After knock-down of MICU3 [DRSC13381], the record shows induced reporter light, run 1, well a = 54985; induced reporter light, run 1, well b = 62055; control promoter light, run 1, well a = 76330; control promoter light, run 1, well b = 61425; uninduced reporter light, run 1, well a = 8620; inactive.
Knock-down of MICU3 [DRSC15613] came out at: induced reporter light, run 1, well a = 1.38e5; induced reporter light, run 1, well b = 1.41e5; control promoter light, run 1, well a = 1.56e5; control promoter light, run 1, well b = 2.16e5; uninduced reporter light, run 1, well a = 16020; inactive.
